From PubChem BioAssay AID504834 (National Center for Advancing Translational Sciences (NCATS), 2011)
In all, about 320,000 compounds went through this assay and about 22,000 (6.9%) were called active. Inconclusive results, whose numbers are uncertain, are shown with a selection of clear calls. Calls follow the shape of the dose curve; as a rule, active = well fitted inhibition curve with a large enough effect; inconclusive = small, poorly fitted or top-dose-only effect, or another doubt; inactive = no such curve, though single readings can be large or run the other way. Potencies of inconclusive entries are doubtful fits and often do not repeat.

Experiment: Primary qHTS for delayed death inhibitors of the malarial parasite plastid, 96 hour incubation
Conditions: P. falciparum luciferase reporter growth; series mostly up to 28.7 µM; activity change, negative = inhibition: at the top concentration
Procedure, shortened: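 Two parasite generations (96 h, 37 C, 5% CO2) of compound exposure in infected erythrocytes (0.05% parasitemia, 2% hematocrit). Luciferase-reporter P. falciparum; decreased luminescence indicates inhibited growth, aimed at apicoplast-acting delayed death.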
% is scaled to controls: 0 for no effect and ±100 for the full control effect; potency is read from the fitted curve at half-maximal effect.

Row | Structure (SMILES) | Potency | activity change, negative = inhibition
1 | N/C(COc1ccc(F)cc1)=N\NC(=O)c1cccnc1Oc1ccccc1 | inconclusive: 0.0586 µM [inhibitor, full curve, poor fit] | 
2 | CC(Oc1ccc(Cl)cc1Cl)C(=O)NNC(=O)c1cccnc1 (stereo not given) |  | inactive: 21.4%
3 | O=C(OCC(=O)N1CCN(C(=O)c2ccco2)CC1)c1ccc(Cl)cc1 |  | inactive: 13.1%
4 | COc1ccc(OCc2nc(N)nc(Nc3ccc(C)cc3)n2)cc1 |  | inactive: -11%
5 | CC1CCN(c2ccc3nnc(CCC(=O)NC(C)C)n3n2)CC1 |  | inactive: -23.1%
6 | COC(=O)CCc1nc2c(C#N)c(-c3ccc(Cl)cc3)ccn2n1 |  | inactive: 14.1%
7 | O=C(Nc1ccc(Cl)cc1)Nc1nnc(-c2ccncc2)s1 | inconclusive: 0.415 µM [inhibitor, full curve, poor fit] | 
8 | O=C(N/N=C\c1cn(-c2ccccc2)nc1-c1ccccc1)c1ccc(Br)o1 | active: 4.15 µM | 
9 | COC(=O)c1cc(NC(=O)c2ccc([N+](=O)[O-])cc2)c(=O)oc1C | inconclusive: 0.294 µM [inhibitor, partial curve, poor fit] | 
10 | O=C(NC1CCCN(Cc2ccc(Cl)cc2)C1)c1cnc2ccccn2c1=O (stereo not given) |  | inactive: 16%
11 | COc1ccc(S(=O)(=O)N2CCCCCC2)cc1NC(=O)Cc1ccccc1F | inconclusive: 18.5 µM [inhibitor, partial curve, poor fit] | 
12 | O=C(CNS(=O)(=O)c1ccc(Cl)cc1)NC1CCCCC1 | inconclusive: 18.5 µM [inhibitor, single point] | 
13 | COc1ccc(Nc2cc(C(=O)NC3CCCC3)c3ccccc3n2)c(OC)c1 | inconclusive: 11.7 µM [inhibitor, single point] | 
14 | COc1ccc(-c2noc(CCCC(=O)NC3CCCC3)n2)cc1OC | inconclusive: 1.47 µM [inhibitor, full curve] | 
15 | COCCn1c(SCC(=O)Nc2cc(C)on2)nc2ccccc2c1=O | inconclusive: 9.28 µM [inhibitor, single point] | 
16 | CC1Nc2ncnc(N3CCOCC3)c2N(Cc2ccc(Cl)cc2)C1=O (stereo not given) | inconclusive: 13.1 µM [inhibitor, partial curve, poor fit] | 
17 | O=C(N/N=C/c1cccc(O)c1)N/N=C/c1cccc(O)c1 | inconclusive: 1.31 µM [inhibitor, full curve] | 
18 | COc1cccc(C2=NOC(C(=O)N3CCOCC3)C2)c1 (stereo not given) | active: 1.65 µM | 
19 | CC(C)CCC(=O)OC1CCC2C3CCC4=CC(=O)CC[C@]4(C)C3CC[C@]12C (stereo not given in full) | active: 12 µM | 
20 | COC(=O)c1ccc(CC(=O)c2nc3ccccc3s2)cc1 | inconclusive: 18.5 µM [inhibitor, single point] | 

As entered above:
In Potency, `CC1Nc2ncnc(N3CCOCC3)c2N(Cc2ccc(Cl)cc2)C1=O` (stereo not given) has inconclusive: 13.1 µM [inhibitor, partial curve, poor fit]
In Potency, `O=C(N/N=C/c1cccc(O)c1)N/N=C/c1cccc(O)c1` has inconclusive: 1.31 µM [inhibitor, full curve]
